PubChem BioAssay
“And” between values parts separate entries of the source, which are not always exact repeats. Equal entries are not always repeated. The list shows a part of the results. These are further read-outs of the screen, such as a control signal, another cell line or another target. No call is given for them. For part of these data: Compounds called inactive in the main read-out are mostly missing here.

What was measured:
PubChem AID 1586 = conditions: yeast two-hybrid polyglutamine protein interaction, reporter readout; measured here: averaged growth delta OD
[1] = enhancers of SMN2 over SMN1 splicing, cell-based, SMN2/SMN1 luciferase reporters (AID 1598); conditions: SMN2 vs SMN1 luciferase splicing reporter cells, at 10 µM; SMN1 luciferase ratio: measured here: SMN1 luciferase reporter average; SMN2 luciferase ratio: measured here: SMN2 luciferase reporter average, stronger effect = higher value
[2] = protection against mutant huntingtin cytotoxicity, PC12 cells, LDH release (AID 1610); conditions: PC12 mutant huntingtin toxicity, final LDH at 4 uM, stronger effect = lower value

| SMILES | signal change (36 h minus 0 h) (PubChem AID 1586) | SMN1 luciferase ratio [1] | SMN2 luciferase ratio [1] | normalised LDH release [2] |
| --- | --- | --- | --- | --- |
| COC(=O)C1=CCCN(C)C1 | 0.139 | 0.86 | 1 | 1.01 |
| O=C(CCCN1CCC2(CC1)C(=O)NCN2c1ccccc1)c1ccc(F)cc1 | 0.389 | 1.01 | 0.86 | 1.29 |
| N[C@@H](Cc1ccc(N(CCCl)CCCl)cc1)C(=O)O | 0.0397 | 0.54 | 0.6 | 1.05 |
| NC(=NCCC[C@H](N)C(=O)O)N[N+](=O)[O-] | 0.368 and 0.31 | 0.92 and 0.89 | 0.87 and 0.97 | 0.861 and 1.08 |
| CN1CCc2cc3c(cc2C1O)OCO3 (centres undefined) | 0.116 | 0.92 | 1.02 | 1.11 |
| O=[N+]([O-])c1cc([As](=O)(O)O)ccc1O | 0.198 | 0.94 | 1.05 | 0.851 |
| Cc1cc(O)ccc1Cl | 0.222 | 0.79 | 0.89 | 0.847 |
| C[N+](C)(C)CC#CCN1CCCC1=O | 0.202 | 0.91 | 0.99 | 0.0173 |
| C[C@H](N)[C@H](O)c1ccc(O)c(O)c1 | 0.0836 | 0.94 | 0.93 | 0.796 |
| CCC(C)C(=O)O[C@H]1[C@H](O)C2C(CN3CC(C)CCC3[C@@]2(C)O)C2C[C@]34O[C@]5(O)C(OC(=O)C(C)(O)CC)CC[C@@]3(C)C5C(OC(C)=O)[C@@H](OC(C)=O)C4[C@@]21O (some centres undefined) | 0.109 | 0.83 | 0.86 | 0.874 |
| CNC(C)C(=O)c1ccccc1 (centres undefined) | 0.136 | 0.95 | 1.01 | 1.07 |
| COc1cc([C@@H]2c3cc4c(cc3[C@H](O)[C@H]3COC(=O)[C@H]23)OCO4)cc(OC)c1OC | 0.212 | 1.4 | 1.35 | 0.945 |
| ClC1C(Cl)C(Cl)C(Cl)C(Cl)C1Cl (centres undefined) | 0.456 | 0.96 | 0.93 | 0.4 |
| CN(C)C(=S)SSC(=S)N(C)C | 0.344 | 0.64 | 0.39 | 1.39 |
| NCCc1c[nH]c2ccccc12 | 0.164 | 0.9 | 0.9 | 0.908 |
| CN(C)[C@@H]1C(=O)C(C(N)=O)=C(O)[C@@]2(O)C(=O)C3=C(O)c4c(O)cccc4[C@@](C)(O)[C@H]3C[C@@H]12 | 0.271 | 0.94 | 0.82 | 1.06 |
| O=C1CC2OCC=C3CN4CC[C@]56c7ccccc7N1C5[C@H]2[C@H]3CC46 (some centres undefined) | 0.2 | 0.89 | 0.88 | 0.617 |
| CC[C@@H]1[C@@H](O)N2C3C[C@H]1C1C(O)[C@]4(C[C@@H]12)c1ccccc1N(C)[C@@H]34 (some centres undefined) | 0.23 | 0.87 | 0.82 | 1.04 |
| O=C1CCO1 | 0.422 | 0.89 | 0.93 | 0.976 |
| CC(C)(O)[C@@H]1[C@H]2OC(=O)[C@@H]1[C@]1(O)C[C@H]3O[C@]34C(=O)O[C@H]2[C@]14C | 0.0839 | 0.86 | 0.92 | 1.15 |
| CC(CCc1ccccc1)NC(C)C(O)c1ccc(O)cc1 (centres undefined) | 0.044 | 0.9 | 0.83 | 1.2 |

Part of the list above in order of length of the SMILES, high to low.

| SMILES | signal change (36 h minus 0 h) (PubChem AID 1586) | SMN1 luciferase ratio [1] | SMN2 luciferase ratio [1] | normalised LDH release [2] |
| --- | --- | --- | --- | --- |
| ClC1C(Cl)C(Cl)C(Cl)C(Cl)C1Cl (centres undefined) | 0.456 | 0.96 | 0.93 | 0.4 |
| C[N+](C)(C)CC#CCN1CCCC1=O | 0.202 | 0.91 | 0.99 | 0.0173 |
| COC(=O)C1=CCCN(C)C1 | 0.139 | 0.86 | 1 | 1.01 |
| O=C1CCO1 | 0.422 | 0.89 | 0.93 | 0.976 |
